Target: NaChBac (Halalkalibacterium halodurans (Bacillus halodurans), UniProt Q9KCR8)
Type: cell-based
Details: hek 293 cells

Protein sequences, listed by entry. Tags and fused reporters are not part of them. Residues count along the entry.
UniProt Q9KCR8, 1-274: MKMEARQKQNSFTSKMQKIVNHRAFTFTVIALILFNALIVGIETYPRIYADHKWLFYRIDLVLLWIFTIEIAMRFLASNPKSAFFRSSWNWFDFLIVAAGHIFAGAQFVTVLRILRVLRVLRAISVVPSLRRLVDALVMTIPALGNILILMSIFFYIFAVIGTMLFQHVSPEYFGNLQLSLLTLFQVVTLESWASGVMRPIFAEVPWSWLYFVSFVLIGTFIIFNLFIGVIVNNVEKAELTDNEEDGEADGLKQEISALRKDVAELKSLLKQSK

SMILES: Cc1ccccc1C(OCCN(C)C)c1ccccc1 (stereo not shown) [Orphenadrine]
- % of block in NaChBac: 76.6±1.1%

From PMC7329812 (Scientific Reports, 2020)
